PubChem BioAssay AID1159584, Peter MacCallum Cancer Centre – 2016

- Purpose: 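Genes that CDH1-null MCF10A cells selectively depend on to survive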 (primary screen)
- System: human MCF10A breast epithelial cells, parental and CDH1-null
- Reagents: siRNA against human genes
- Detection: 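ATP luminescence (CellTiter-Glo) viability per line relative to mean mock wells over all plates, and the ratio of CDH1-null to parental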
- Direction: CDH1-null / parental viability ratio: higher = CDH1-null cells survive relatively better than parental; CDH1-null viability vs mock: higher = more viable CDH1-null cells; parental viability vs mock: higher = more viable parental cells
This is a random part of about 18,000 reagents. The record does not give: the amount of reagent, the time to read-out.

no.	gene symbol	CDH1-null / parental viability ratio	CDH1-null viability vs mock (fraction of mock)	parental viability vs mock (fraction of mock)
1	RAC2 (Rac family small GTPase 2)	0.79	0.52	0.66
2	CD63 (CD63 molecule)	0.83	0.72	0.87
3	RPL3 (ribosomal protein L3)	1.29	0.36	0.28
4	ATG16L1 (autophagy related 16 like 1)	0.97	0.94	0.97
5	HGF (hepatocyte growth factor)	1.24	0.94	0.76
6	RXFP2 (relaxin family peptide receptor 2)	0.91	0.84	0.92
7	APOC3 (apolipoprotein C3)	0.9	0.88	0.98
8	ZFYVE27 (zinc finger FYVE-type containing 27)	0.59	0.48	0.81
9	ZCCHC14 (zinc finger CCHC-type containing 14)	1.03	0.67	0.65
10	NREP (neuronal regeneration related protein)	0.8	0.56	0.7
11	LINC02145 (long independently transcribed non-coding RNA 2145)	0.89	0.73	0.82
12	PKN2 (protein kinase N2)	1.41	1	0.71
13	CDKN2A (cyclin dependent kinase inhibitor 2A)	0.67	0.42	0.63
14	PAOX (polyamine oxidase)	0.9	0.8	0.89
15	ZMAT1 (zinc finger matrin-type 1)	1.22	0.78	0.64
16	AFTPH (aftiphilin)	0.83	0.48	0.58
17	PRR19 (proline rich 19)	0.97	0.62	0.64
18	CPN2 (carboxypeptidase N subunit 2)	1.07	0.98	0.92
19	TSLIG2 (tRNA splicing ligase complex subunit 2)	0.85	1.09	1.28
20	BBX (BBX high mobility group box domain containing)	1.27	0.66	0.52
21	MRPS27 (mitochondrial ribosomal protein S27)	0.85	0.46	0.54
22	RSU1 (Ras suppressor protein 1)	1.04	0.75	0.72
23	RBM18 (RNA binding motif protein 18)	0.94	0.96	1.02
24	SERPINA12 (serpin family A member 12)	0.94	1.02	1.09
25	UBL5 (ubiquitin like 5)	0.8	0.32	0.4
26	ZFR (zinc finger RNA binding protein)	1.09	1	0.92
27	MTRR	0.93	0.86	0.92
28	EEF1A2 (eukaryotic translation elongation factor 1 alpha 2)	1.04	1.21	1.16
29	ATP1A1 (ATPase Na+/K+ transporting subunit alpha 1)	0.84	0.87	1.04
30	ASIC4 (acid sensing ion channel subunit family member 4)	1.8	1.01	0.56
31	NEURL1 (neuralized E3 ubiquitin protein ligase 1)	0.77	0.58	0.75
32	TMEM255B (transmembrane protein 255B)	1.14	0.64	0.56
33	LSM8 (LSM8 homolog, U6 small nuclear RNA associated)	1.33	0.6	0.45
34	YEATS2 (YEATS domain containing 2)	0.71	0.64	0.9

Sorted by “parental viability vs mock (fraction of mock)” (lowest first): some entries from above
gene symbol	CDH1-null / parental viability ratio	CDH1-null viability vs mock (fraction of mock)	parental viability vs mock (fraction of mock)
BBX (BBX high mobility group box domain containing)	1.27	0.66	0.52
AFTPH (aftiphilin)	0.83	0.48	0.58
CDKN2A (cyclin dependent kinase inhibitor 2A)	0.67	0.42	0.63
ZMAT1 (zinc finger matrin-type 1)	1.22	0.78	0.64
PRR19 (proline rich 19)	0.97	0.62	0.64
PKN2 (protein kinase N2)	1.41	1	0.71
PAOX (polyamine oxidase)	0.9	0.8	0.89
CPN2 (carboxypeptidase N subunit 2)	1.07	0.98	0.92
TSLIG2 (tRNA splicing ligase complex subunit 2)	0.85	1.09	1.28

Continued:
no.	gene symbol	CDH1-null / parental viability ratio	CDH1-null viability vs mock (fraction of mock)	parental viability vs mock (fraction of mock)
35	PSMC1 (proteasome 26S subunit, ATPase 1)	0.94	0.6	0.64
36	PSMA6 (proteasome 20S subunit alpha 6)	1.67	0.5	0.3
37	PSIP1 (PC4 and SRSF1 interacting protein 1)	1.36	0.6	0.44
38	MPP7 (MAGUK p55 scaffold protein 7)	1.05	0.9	0.86
39	CSTF2 (cleavage stimulation factor subunit 2)	1.39	0.99	0.71
40	ARHGDIA (Rho GDP dissociation inhibitor alpha)	0.84	0.76	0.9
41	POU1F1 (POU class 1 homeobox 1)	0.87	0.52	0.6
42	SNAPIN (SNAP associated protein)	1.23	0.86	0.7
43	NOC4L (nucleolar complex associated 4 homolog)	1.1	0.79	0.72
44	YES1 (YES proto-oncogene 1, Src family tyrosine kinase)	0.94	0.76	0.81
45	SLC25A5	1.18	1.09	0.92
46	GOLGA6L9 (golgin A6 family like 9)	1.16	1.13	0.97
47	XPNPEP1 (X-prolyl aminopeptidase 1)	1.13	0.97	0.86
48	RANBP1 (RAN binding protein 1)	0.88	0.8	0.91
49	MARS1 (methionyl-tRNA synthetase 1)	0.93	0.8	0.86
50	TMEM266 (transmembrane protein 266)	0.91	0.8	0.88
51	RNF25 (ring finger protein 25)	0.96	0.94	0.98
52	CSNK1D (casein kinase 1 delta)	1.1	1.02	0.93
53	MUCL1 (mucin like 1)	1.08	0.8	0.74
54	PIGV (phosphatidylinositol glycan anchor biosynthesis class V)	1.07	0.59	0.55
55	C1QTNF7 (C1q and TNF related 7)	1.02	0.46	0.45
56	PRSS36 (serine protease 36)	1.08	0.67	0.62
57	PNKD (PNKD metallo-beta-lactamase domain containing)	1.37	0.52	0.38
58	CD14 (CD14 molecule)	1	0.8	0.8
59	SPINT1 (serine peptidase inhibitor, Kunitz type 1)	0.82	0.56	0.68
60	CEACAM3 (CEA cell adhesion molecule 3)	1.48	0.65	0.44
61	ROPN1 (rhophilin associated tail protein 1)	1.05	0.67	0.64
62	DNAJB4 (DnaJ heat shock protein family (Hsp40) member B4)	1.15	0.85	0.74
63	REX1BD (required for excision 1-B domain containing)	0.61	0.46	0.76
64	PGS1 (phosphatidylglycerophosphate synthase 1)	1.02	0.84	0.82
65	ELOF1 (elongation factor 1)	0.76	0.58	0.76
66	MSANTD2 (Myb/SANT DNA binding domain containing 2)	0.81	0.68	0.84
67	KYAT3 (kynurenine aminotransferase 3)	0.52	0.32	0.61
68	TTC39B (tetratricopeptide repeat domain 39B)	0.74	0.5	0.68
